In the experiment the target is Argonaute-2 (Ago2) in TEC lysate (rat (endogenous in NRK52E)) (UniProt Q9QZ81). Put plainly: co-IP; lysates of TECs with different treatments incubated with anti-Ago2 mouse monoclonal antibody at 4°C overnight, protein A+G agarose for 3 hours at 4°C; beads probed with Ago2 and Nrp-1 antibodies by immunoblotting. A general note: Immunoblotting shows a protein as a band on a membrane.

Sequences of proteins named here, by UniProt entry; tags and fusion partners are left off.
UniProt Q9QZ81: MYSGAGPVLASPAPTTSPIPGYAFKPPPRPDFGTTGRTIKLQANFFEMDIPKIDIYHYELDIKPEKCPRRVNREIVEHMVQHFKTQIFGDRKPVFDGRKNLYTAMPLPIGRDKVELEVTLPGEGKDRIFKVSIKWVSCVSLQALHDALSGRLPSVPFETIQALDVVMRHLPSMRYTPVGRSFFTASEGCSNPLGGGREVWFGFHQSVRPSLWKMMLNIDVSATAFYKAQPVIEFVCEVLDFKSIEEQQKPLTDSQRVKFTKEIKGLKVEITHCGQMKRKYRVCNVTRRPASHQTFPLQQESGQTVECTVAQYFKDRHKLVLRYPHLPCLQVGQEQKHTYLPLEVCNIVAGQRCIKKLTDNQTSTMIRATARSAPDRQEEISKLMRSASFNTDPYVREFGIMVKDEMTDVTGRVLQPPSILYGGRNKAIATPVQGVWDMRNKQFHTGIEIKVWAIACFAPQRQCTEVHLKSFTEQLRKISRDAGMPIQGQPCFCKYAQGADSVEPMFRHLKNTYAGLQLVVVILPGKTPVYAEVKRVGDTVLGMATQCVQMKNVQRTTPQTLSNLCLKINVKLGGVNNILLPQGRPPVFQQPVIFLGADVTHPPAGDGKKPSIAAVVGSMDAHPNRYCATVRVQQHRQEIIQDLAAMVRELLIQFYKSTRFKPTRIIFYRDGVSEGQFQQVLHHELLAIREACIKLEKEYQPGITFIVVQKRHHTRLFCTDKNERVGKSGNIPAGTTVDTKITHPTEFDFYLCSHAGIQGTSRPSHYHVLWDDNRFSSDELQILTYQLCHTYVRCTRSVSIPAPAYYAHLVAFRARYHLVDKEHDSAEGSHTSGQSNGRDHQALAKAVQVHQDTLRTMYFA

These are yes or no findings as the source states them, for the method shown. Binding seen in cells or lysates may run through a third protein. Some results given as binding are weak or reduced against the parent protein; the word gives no strength.

Among the data in PMC7453242 are binding values, retold here.

For the substance “Neuropilin-1 (Nrp-1), TEC-derived (from UniProt Q9QWJ9 22-922) (receptor)”, the binding result is given as “binds”.
